No constants are given. Whether binding was seen depends on the method and setting. Some results given as binding are weak or reduced against the parent protein; the word gives no strength. Where no end group is shown, it is not given here.
T1: hTREM2 stalk peptide residues 129-175 (human, biotinylated)
T1 construct: also called human TREM2 stalk peptide
T1 peptide: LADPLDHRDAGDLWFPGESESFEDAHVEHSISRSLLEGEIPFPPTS

T2: TREM2 peptide fragment residues 149-158 (human)
T2 sequence (peptide): SFEDAHVEHS


Assays:
[1] = molecular target: T1, hTREM2 stalk peptide residues 129-175; assay: peptide ELISA, IgG
[2] = molecular target: T2, TREM2 peptide fragment residues 149-158 (human); assay: peptide ELISA, IgG

binding [1] | binding [2] | Binder
binds | binds | Para.09 IgG with the 3.27H7 light chain (antibody, V domains shown, also called rat Para.09; Para.09-L27H7) VH: EVQLVETGGSLVQPGKSLRLTCATSGFPFSNVWLHWVRQSPEKHPEWVAHIKAKSDNYATYYAESVKGRFTISRDDSKSSVFLQMNSLKEEDTAIYYCTDILEYWGQGTLVTVSS VL: DVVLTQAPLSVSVTPGESASISCRSSRSLLTSKGITSLYWYLQKPGMSPHLLIYRMSNLASGIPDRFSGSGSETDFTLKISEVEPEDVGVYYCAQFLVYPYTFGAGTKLELK
 | binds | 3.10C2 IgG (rat variable regions; captured by anti-CH1 or anti-human Fab chips) (antibody, V domains shown, also called parental 3.10C2 clone; 3.10C2 control) VH: EVQLVETGGSLVQPGKSLKLTCATSGFPFSNVWMHWVRQSPEKQLEWIAHIKAKSDNYATYYAESVKGRFTISRDDSKTSIYLQMNSLKEDDTAIYYCTGLDYWGQGVMVTVSS VL: DTVLTQAPLSLSVTPGESASISCRSSKSLLGVRDITSLYWYLQKPGKSPQLLIYRMSNLASGVPDRFSGSGSETDFTLKISEVETEDVGVYYCAQFLRYPYTFGPGTKLELK
binds | binds | Para.09 IgG with the 3.50G1 light chain (antibody, V domains shown) VH: EVQLVETGGSLVQPGKSLRLTCATSGFPFSNVWLHWVRQSPEKHPEWVAHIKAKSDNYATYYAESVKGRFTISRDDSKSSVFLQMNSLKEEDTAIYYCTDILEYWGQGTLVTVSS VL: DTVLTQAPLSVSVTPGESASISCRSNKSLLGIRDITSLYWFLQKPGKSPQLLIYRMSNLASGVPDRFSGSGSETDFTLKISEVETEDVGVYYCAQFLRYPYTFGPGTKLELQ

More lines, now with the values behind:

Binder | binding [1] | binding [2]
Para.09 IgG with the 3.18E5 light chain (antibody, V domains shown) VH: EVQLVETGGSLVQPGKSLRLTCATSGFPFSNVWLHWVRQSPEKHPEWVAHIKAKSDNYATYYAESVKGRFTISRDDSKSSVFLQMNSLKEEDTAIYYCTDILEYWGQGTLVTVSS VL: DTVLTQAPLSVSVTPGESASISCRSNKSLLGIRDITSLYWYLQKPGKSPQLLIYRMSNLASGVPDRFSGSGSETDFTLKISEVETEDVGVYYCAQFLRYPYTFGPGTKLELK | binds | binds
Para.09 IgG with the 3.10C2 light chain (antibody, V domains shown) VH: EVQLVETGGSLVQPGKSLRLTCATSGFPFSNVWLHWVRQSPEKHPEWVAHIKAKSDNYATYYAESVKGRFTISRDDSKSSVFLQMNSLKEEDTAIYYCTDILEYWGQGTLVTVSS VL: DTVLTQAPLSLSVTPGESASISCRSSKSLLGVRDITSLYWYLQKPGKSPQLLIYRMSNLASGVPDRFSGSGSETDFTLKISEVETEDVGVYYCAQFLRYPYTFGPGTKLELK | binds | binds

— patent US20220389097A1 (Genentech, published 2022)
